# Library screen at single concentrations

From ChEMBL document CHEMBL3988442, “University of Dundee, Small-Polar-MMV Screening Library” (2021).

The filed quantity is “Percent Effect” (%).
The record does not define 0% and 100%; most values in the screen are far below 50% and negative numbers occur (in some assays of this library far below -100).
Compounds were drawn at random from those tested, without regard to their results.
Two or more numbers in one place are separate tests of the same structure; such repeats can differ widely.

Mtb cholesterol medium: 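Whole-cell growth test on Mycobacterium tuberculosis, read after 4 days in a medium based on cholesterol and the lipid DPPC; the read-out is not stated. Concentration: 50 µM. Direction is inferred from retests: higher values go with more growth inhibition. Size under these conditions: about 69,000 compounds, about 370 of them at 50% or above in at least one test.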
Mtb glucose medium: 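Phenotypic screen: M. tuberculosis growth, glucose 7H9 medium, 3 days; the read-out is not stated. Compounds at 50 µM. The record gives no direction; compounds that gave an IC50 in retests scored well above the rest, so higher reads as more growth inhibition. Of about 69,000 compounds tested this way, about 760 (1.1%) reached 50% or more in at least one test.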

{"compound": "Cc1nc(NC(=O)C(C)S(C)(=O)=O)sc1Cc1ccccc1F", "stereo": "centres unmarked", "Mtb cholesterol medium": 15.06, "Mtb glucose medium": 22.25}
{"compound": "Cc1nc(NCCC23CCCN2CCC3)cc(C2CCNCC2)n1", "Mtb cholesterol medium": -13.22, "Mtb glucose medium": -17.4}
{"compound": "O=C(Nc1nc2c(s1)CN(S(=O)(=O)C1CC1)CC2)c1ccccn1", "Mtb cholesterol medium": -18.74, "Mtb glucose medium": -11.6}
{"compound": "O=C(CN1CCCS1(=O)=O)Nc1ccc(OC(F)F)cc1", "Mtb cholesterol medium": -18.79, "Mtb glucose medium": -24.43}
{"compound": "[H][C@]12CC[C@@]3(N=C(C)NC3=O)[C@@]1([H])CN(C(=O)NCc1cccc(F)c1)C2", "Mtb cholesterol medium": -10.1, "Mtb glucose medium": -12.35}
{"compound": "O[C@H]1Cc2ccccc2[C@H]1Nc1ncccc1C(F)(F)F", "Mtb cholesterol medium": -0.284, "Mtb glucose medium": 13.27}
{"compound": "Cc1ccc(N2CCCc3sc(C(=O)NCc4ccc(C)o4)nc32)nn1", "Mtb cholesterol medium": -7.546, "Mtb glucose medium": "12.36 and 9.956"}
{"compound": "NC(=O)Cn1nc(-c2ccccc2F)ccc1=O", "Mtb cholesterol medium": -5.335, "Mtb glucose medium": 12.58}
{"compound": "Cc1nc(C2CCNCC2)cc(N2CCCC(C(=O)NCCCO)C2)n1", "stereo": "centres unmarked", "Mtb cholesterol medium": "-25.79 and -4.347", "Mtb glucose medium": "-6.453 and -6.26"}
{"compound": "CCc1ncc2c(n1)CN(Cc1nnc(CC)o1)CC2", "Mtb cholesterol medium": -4.183, "Mtb glucose medium": 0.1452}
{"compound": "CNc1nc(C(=O)N2CCC3(CCCN(C)C3=O)C2)cs1", "stereo": "centres unmarked", "Mtb cholesterol medium": 13.88, "Mtb glucose medium": -8.609}
{"compound": "COc1cc(Cl)c(NC(=O)c2cc3c([nH]c2=O)CCCC3=O)cc1OC", "Mtb cholesterol medium": -7.159, "Mtb glucose medium": -10.62}
{"compound": "Cc1nc(C2CCCN2C(=O)CN(C)Cc2ccccc2)no1", "stereo": "centres unmarked", "Mtb cholesterol medium": -11.47, "Mtb glucose medium": 9.827}
{"compound": "CCOc1ccc(Cl)cc1CCNC(=O)c1ccc(=O)n(C)c1", "Mtb cholesterol medium": 13.65, "Mtb glucose medium": -25.67}
{"compound": "Cc1cc(N2CCC3(CCCN(C4CCOCC4)C3=O)C2)ccn1", "stereo": "centres unmarked", "Mtb cholesterol medium": 20.11, "Mtb glucose medium": -6.931}
{"compound": "CC(C)(C)CNC1(Cc2cc(C(C)(C)O)on2)COC1", "Mtb cholesterol medium": -12.8, "Mtb glucose medium": "-19.52 and -0.5991"}
{"compound": "CC(C)OCCCNC(=O)C1CCC(=O)N(C2CCCC2)C1", "stereo": "centres unmarked", "Mtb cholesterol medium": -15.69, "Mtb glucose medium": -28.06}
{"compound": "CNc1cccc(C2CCN(C(=O)c3cccnc3)CC2)n1", "Mtb cholesterol medium": 12.12, "Mtb glucose medium": 11.87}
{"compound": "CC(C)[C@H]1CN(CCS(C)(=O)=O)C[C@@H]1NC(=O)c1ccc(=O)[nH]c1", "Mtb cholesterol medium": 13.88, "Mtb glucose medium": "5.617 and 6.296"}
{"compound": "Cc1nc(-c2ccccc2)n(CC(=O)NC(C)C)n1", "Mtb cholesterol medium": -0.4289, "Mtb glucose medium": 16.54}
{"compound": "Cc1cc(NC(=O)CNC(C)(C)c2ccc3c(c2)OCO3)on1", "Mtb cholesterol medium": -6.886, "Mtb glucose medium": "-2.36 and 11.2"}
{"compound": "CC(C)Nc1nc(O)cc(C2CC(=O)N(C3CCCCC3)C2)n1", "stereo": "centres unmarked", "Mtb cholesterol medium": "4.364 and -5.793", "Mtb glucose medium": -14.29}
{"compound": "O=C(c1cc(=O)c(OCc2ccccc2F)co1)N1CCCC1", "Mtb cholesterol medium": -16.03, "Mtb glucose medium": 0.9968}
{"compound": "CCn1nc2c(cc1=O)CN(Cc1nc(-c3ccccn3)no1)CC2", "Mtb cholesterol medium": -9.439, "Mtb glucose medium": -21.86}
{"compound": "O=C(O)C(F)(F)F.[H][C@@]12C[C@@H](c3nc(C)no3)O[C@]1([H])CN(Cc1scnc1C)C2", "Mtb cholesterol medium": "8.207 and 7.665", "Mtb glucose medium": "13.98 and 14.12"}
{"compound": "O=C(NCC(O)c1ccc(F)cc1F)c1cccnc1O", "stereo": "centres unmarked", "Mtb cholesterol medium": -16.82, "Mtb glucose medium": -9.795}
{"compound": "CN(C)C(C(=O)N1Cc2ccccc2C1)c1ccccc1F", "stereo": "centres unmarked", "Mtb cholesterol medium": 2.739, "Mtb glucose medium": 2.016}
{"compound": "CN(C)c1cc(C(=O)NCc2cccnc2-n2cncn2)ccn1", "Mtb cholesterol medium": -6.009, "Mtb glucose medium": -17.81}
{"compound": "CCOCC1c2c(ncn2C)CCN1C(=O)c1cscn1", "stereo": "centres unmarked", "Mtb cholesterol medium": -13.86, "Mtb glucose medium": 24.75}
{"compound": "COC1CCN(c2cc(C(C)C)nc3ccnn23)C1", "stereo": "centres unmarked", "Mtb cholesterol medium": 28.78, "Mtb glucose medium": 3.183}
{"compound": "CC(C)Oc1cc(N2CCC(C(N)=O)CC2)nc(N)n1", "Mtb cholesterol medium": -12.41, "Mtb glucose medium": -21.26}
{"compound": "[H][C@@]12CN(C(=O)COCC)C[C@]1([H])C(=O)N(CC1CC1)C2", "Mtb cholesterol medium": 27, "Mtb glucose medium": 21.33}
{"compound": "Cn1ccnc1CNC(=O)N(CCCO)C1CCc2ccccc21", "stereo": "centres unmarked", "Mtb cholesterol medium": "-8.88 and -20.41", "Mtb glucose medium": -5.341}
{"compound": "COc1ccccc1N1CCN(C(=O)Cn2nc(C)c(C)c2C)C(C)C1", "stereo": "centres unmarked", "Mtb cholesterol medium": "-13.54 and 6.218", "Mtb glucose medium": 2.379}
{"compound": "COCC1(C(=O)N[C@H]2CN(c3noc(C)n3)C[C@@H]2C2CC2)CCC1", "Mtb cholesterol medium": -7.855, "Mtb glucose medium": 46.26}
{"compound": "O=S(=O)(NCCC(O)c1cccs1)c1c(F)cccc1F", "stereo": "centres unmarked", "Mtb cholesterol medium": 3.012, "Mtb glucose medium": "22.36 and 9.467"}
{"compound": "CC(C)n1ccnc1C1CCCN(Cc2ccc(F)c(F)c2)C1", "stereo": "centres unmarked", "Mtb cholesterol medium": -49.97, "Mtb glucose medium": -16.49}
{"compound": "Cc1n[nH]c(C2CN(C(=O)c3coc(Br)c3)CCO2)n1", "stereo": "centres unmarked", "Mtb cholesterol medium": 19, "Mtb glucose medium": 9.979}
{"compound": "CCS(=O)(=O)N1CCc2c(nc(C3CCCN3)nc2NC)C1.Cl", "stereo": "centres unmarked", "Mtb cholesterol medium": 5.79, "Mtb glucose medium": 1.407}